Laboratory results from PubChem BioAssay AID2685 (National Center for Advancing Translational Sciences (NCATS), 2010).
The whole screen tested about 320,000 compounds, of which about 2,100 (0.66%) were called active. This list was built around the results that the source calls inconclusive (neither active nor inactive); the mix of calls is not that of the screen. The call rests on the fitted dose curve; in most records, active means well fitted inhibition curve with a large enough effect in the signal ratio, with a control signal flat (not every such curve was filed as active); inconclusive means small, poorly fitted or top-dose-only effect, or effect the other way, or a change in a side signal; inactive means flat fitted curve, though single readings scatter; the % refers to the signal ratio. A potency beside an inconclusive call is a rough fit, not a confirmed value.

assay: qHTS Assay for Lipid Storage Modulators in Drosophila S3 Cells; conditions: BODIPY lipid droplet fluorescence, 18-24 h, cells fed with added oleic acid; lipid storage change, negative = inhibition: at 46.1 µM (top of the series) unless noted
Outline: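 Drosophila S3 cells got compounds at several concentrations plus oleic acid (400 uM solution). Laser-scanning cytometry with 488 nm excitation read lipid droplets at 500-530 nm and cells at 575-640 nm. Percent activity was relative to 20 uM Triacsin C.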
On the % scale 0 is the no-effect control and ±100 the full control effect; potency means the concentration at half of the fitted maximal effect.

Lipid storage change, negative = inhibition, inactive:
O=C(O)c1cccc2c1C(=O)N(c1ccccc1)C2
COC(=O)Nc1ccc(Cn2cc(C(F)(F)F)ccc2=O)cc1

Lipid storage change, negative = inhibition, inconclusive:
O=C(OC1CSc2nc3ccccc3n2C1)c1ccco1 (stereo unspecified) -41.9%
Cn1c(SCC(=O)N/N=C/c2cccnc2)nnc1-c1ccccc1 9.21%
CCC(=O)NC(c1ccco1)c1cc(Br)c2cccnc2c1O (stereo unspecified) 18.7%
O=C(O)CSc1nnc(-c2ccncc2)n1C1CCCCC1 14.6%
COc1ccc(Cc2nc3ccc(C(=O)NCc4cc(C)no4)cc3o2)cc1 39.1%
Cc1ccc(C(C(=O)NC2CCCC2)N(Cc2ccco2)C(=O)CCC(=O)Nc2ccccn2)cc1 (stereo unspecified) 2.8%
Cc1ccc(C(=O)CCS(=O)(=O)c2ccc(F)cc2)cc1 -50.4%
Cc1cc(C)c(NC(=O)CNC(=O)c2ccc(-n3cncn3)c([N+](=O)[O-])c2)c(C)c1
CN1C2CC(OC(=O)C(CO)c3ccccc3)CC1C1OC12 (stereo unspecified) 30.3%
COc1ccc(CN2CCC(=O)N(CCO)CC2)cc1OC -4.94%
O=C(NCC1CCCO1)c1cc(-c2ccncc2)nc2ccccc12 (stereo unspecified) -28.5%
N#Cc1cccc(C(c2nnnn2CCc2ccccc2)N2CCN(C3CCCCC3)CC2)c1 (stereo unspecified) 59.6%
CCN1C(=NCC(C)C)N[C@@H](c2ccccc2)[C@H](C(=O)OC)[C@H]1C 27.2%
O=C(CN1CCCCC1)Nc1cccc(Cl)c1 13.8%
CC1CCC(NC(=O)C2CC(=O)N(c3ccc4c(c3)OCCO4)C2)CC1 (stereo unspecified) -2.31%
CCN(c1ccc(NC(=O)COC(=O)c2cccs2)cc1)C(C)C 4.21%
Cc1ccccc1C(=O)Nc1ccccc1C(=O)NCC(C)C -1.03%
COC(=O)c1ccc(NC(=O)CSc2nnc(COc3ccccc3)n2C)cc1 18.8%
O=C(COC(=O)c1cccnc1)NC1CCCc2ccccc21 (stereo unspecified) 35%
CC(c1c(O)c2ccccc2[nH]c1=O)C1(C)CCC(O)C(C)(C)O1 (stereo unspecified) -22.9%
COc1ccccc1NC(=O)CN1C(=O)NC2(CCCCCCC2)C1=O -32.1% [at 0.00295 µM]
COc1ccccc1N1CCN(C(=O)c2sc3nc(-c4ccccc4)cn3c2C)CC1 2.07%
COC(=O)C1=C(Nc2ccc(OC)cc2)C=C(C)C(C(=O)OC)C1c1ccc(C)cc1 (stereo unspecified) 42.9%
CSc1nc2ccc(S(=O)(=O)N3CCCCC3)cc2s1 28.3%
CCOC(=O)CSc1cc(C)nc(NC(C)=O)n1 -5.17%
O=C(NC1CS(=O)(=O)CC1NCc1ccco1)c1ccccc1 (stereo unspecified) -3.1%
CC(=O)Nc1cccc(N2CCCC2=O)c1 1.78%
CN1CCN(CCCNC(=O)c2ccc(Cn3c(=S)[nH]c4ccc(Br)cc4c3=O)cc2)CC1 -0.761%
Cc1ccc(N2CC(C(=O)OCC(=O)c3ccc(C)c([N+](=O)[O-])c3)CC2=O)cc1 (stereo unspecified) 13.2%
O=C(COC(=O)c1cncc(Br)c1)NCc1ccccc1Cl 2.38%
COC(=O)C1=C(C)OC(N)=C(C#N)C1c1cc2cc(C)ccc2nc1Cl (stereo unspecified) 3.49%
O=C(NCCC(=O)N1CCN(c2cccc(Cl)c2)CC1)c1ccc(Br)cc1 -18.1%
O=C(CSc1nnc(Cc2ccccc2)n1Cc1ccco1)NC1CCCC1 -61.9%
O=C(O)c1cccc(Cn2c(Cl)c(/C=N/NC(=O)c3cccc(O)c3)sc2=O)c1 -20.1%
CCN(CC)CCNC(=O)Cn1nc(Cc2ccccc2)c2ccccc2c1=O 12.5%
Cc1ccc(S(=O)(=O)N2CCOC2CNC(=O)C(=O)NCCN(C)C)cc1 (stereo unspecified) 50.4%

Potency, inconclusive:
C=CCOc1ccccc1CN1CCC(Oc2ccc(C(=O)N3CCCC3)cc2)CC1 23100 nM [activator, single point]
O=C(Cn1cnc2c(nnn2-c2ccccc2)c1=O)NCC1CCCO1 (stereo unspecified) 580 nM [falling, single point]
CC1=C(C(N)=O)C(c2cccnc2)n2nc(-c3cccc(Cl)c3)nc2N1 (stereo unspecified) 1460 nM [falling, partial curve, poor fit]
CCC(=O)C1=C(O)C(c2cccc(Oc3ccccc3)c2)CCC1=O (stereo unspecified) 6510 nM [falling, single point]
Cc1cccc(-n2c(CNC(=O)COc3ccccc3)nnc2SCC(=O)Nc2nccs2)c1 1300 nM [falling, partial curve, poor fit]
CC(=O)Nc1ccc(OCC=C(Cl)Cl)cc1 5800 nM [rising, partial curve]
C/C(Nc1ccc(Cl)cc1)=C(/C#N)C(N)=O 517 nM [falling, full curve]
Cn1ncc2c1ncn1nc(COc3ccc4ccccc4c3)nc21 164 nM [activator, full curve]
CC(=O)c1cccc(NC(=O)C(C)OC(=O)c2ccc(-n3cnnn3)cc2)c1 (stereo unspecified) 116 nM [activator, partial curve, poor fit]
CCOC(=O)c1ccc(P(=O)(c2ccccc2)c2ccccc2)cc1 1160 nM [activator, full curve]
Cc1c(C(=O)N2CCCCC2)c(S(=O)(=O)NCCc2ccc(S(N)(=O)=O)cc2)c(C)n1C 411 nM [falling, single point]
Cc1sc2ncnc(OCC(=O)NC(C)C)c2c1C 6510 nM [falling, single point]
C[C@H](NC(=O)[C@@H]1Cc2ccccc2CN1)C(=O)Nc1ccc2c(c1)OCCO2 6510 nM [activator, single point]

2 consecutive compounds from above:
Potency, inconclusive:
Cn1ncc2c1ncn1nc(COc3ccc4ccccc4c3)nc21 164 nM [activator, full curve]
CC(=O)c1cccc(NC(=O)C(C)OC(=O)c2ccc(-n3cnnn3)cc2)c1 (stereo unspecified) 116 nM [activator, partial curve, poor fit]
